No constants are given. Whether binding was seen depends on the method and setting. Binding seen in cells or lysates may run through a third protein. Sequences can lack the tags named with a protein.

Sequences of proteins named here, by UniProt entry; tags and fusion partners are left off.
UniProt P69713: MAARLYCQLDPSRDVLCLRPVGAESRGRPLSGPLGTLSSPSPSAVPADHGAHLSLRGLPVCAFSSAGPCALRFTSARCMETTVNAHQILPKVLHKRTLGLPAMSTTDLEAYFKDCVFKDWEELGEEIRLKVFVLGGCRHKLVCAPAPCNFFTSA

The assay deals with HA-tagged full-length HBx (hepatitis B virus X protein) (hepatitis B virus (adw2 subtype)) (UniProt P69713). The experiment in a line: co-IP; cells cotransfected with pCMV-MAZ and pCMV-HA/HBx or pCMV-HA/HBxΔ31; lysed 48 h later in TBS with 0.5% NP-40; IP with anti-HA and blot with anti-MAZ, or IP with anti-MAZ and blot with anti-HA.

B1: myc-associated zinc finger protein (MAZ) (protein, UniProt P56270 1-477)
chain: MFPVFPCTLLAPPFPVLGLDSRGVGGLMNSFPPPQGHAQNPLQVGAELQSRFFASQGCAQSPFQAAPAPPPTPQAPAAEPLQVDLLPVLAAAQESAAAAAAAAAAAAAVAAAPPAPAAASTVDTAALKQPPAPPPPPPPVSAPAAEAAPPASAATIAAAAATAVVAPTSTVAVAPVASALEKKTKSKGPYICALCAKEFKNGYNLRRHEAIHTGAKAGRVPSGAMKMPTMVPLSLLSVPQLSGAGGGGGEAGAGGGAAAVAAGGVVTTTASGKRIRKNHACEMCGKAFRDVYHLNRHKLSHSDEKPYQCPVCQQRFKRKDRMSYHVRSHDGAVHKPYNCSHCGKSFSRPDHLNSHVRQVHSTERPFKCEKCEAAFATKDRLRAHTVRHEEKVPCHVCGKMLSSAYISDHMKVHSQGPHHVCELCNKGTGEVCPMAAAAAAAAAAAAAAVAAPPTAVGSLSGAEGVPVSSQPLPSQPW
Consider B1, for which the binding result is reported as “no binding”.

These data come from paper PMC5342405.
